According to patent US20030165973A1:

Biological target: PPAR-γ
Assay: co-immunoprecipitation from transfected COS cell extracts with rabbit anti-murine PPAR-γ, then anti-HA Western blot (ECL)

binding: binds
B1: HA-tagged PGC-1-like protein polypeptide (protein, not shown: small tags and cut ends)
chain: MPPVYASEYVLPLQGGGSGEEQLYADFPELDLSQLDASDFDSATCFGELQWCPENSETEPNQYSPDDSELFQIDSENEALLAELTKTLDDIPEDDVGLAAFPALDGGDALSCTSASPAPSSAPPSPAPEKPSAPAPEVDELSLEEEEEEEEEEKEEEEEWGRKRPGRGLPWTKLGRKLESSVCPVRRSRRLNPELGPWLTFADEPLVPSEPQGALPSLCLAPKAYDVERELGSPTDEDSGQDQQLLRGPQIPALESPCESGDPTFGKKSFEQTLTVELCGTAGLTPPTTPPYKPTEEDPFKPDIKHSLGKEIALSLPSPEGLSLKATPGAAHKLPKKHPERSELLSHLRHATAQPASQAGQKRPFSCSFGDHDYCQVLRPEGVLQRKVLRSWEPSGVHLEDWPQQGAPWAEAQAPGREEDRSCDAGAPPKDSTLLRDHEIRASLTKHFGLLETALEEEDLASCKSPEYDTVFEDSSSSSGESSFLPEEEEEEGEEEEEDDEEEDSGVSPTCSDHCPYQSPPSKANRQLCSRSRSSSGSSPCHSWSPATRRNFSSRGARSPRREDPWEACSETEAASPSVAHVLVRSLEDWHCPLSDSSRYCSLSQASWTRTRTPREPTPRGAPGSQAMTESLSVLLLGQGEGRVVYIQNLSSDMSSRELKRRFEVFGEIEECEVLTRNRRGEKYGFITYRCSEHAALSLTKGAALRKRNEPSFQLSYGGLRHFCWPRYTDYDSNSEEALPASGKSKYEAMDFDSLLKEAQQSLH

Results are given in words; binding and its absence hold for the method and conditions named. In cells and extracts the contact can be indirect. Binding can be weak; no strength is given. Where a sequence is shown, tags or fusion partners need not be part of it.
